In publication PMC7191908, “Bacterial ι-carbonic anhydrase: a new active class of carbonic anhydrase identified in the genome of the Gram-negative bacterium Burkholderia territorii” (Journal of Enzyme Inhibition and Medicinal Chemistry, 2020):

Biological target: BteCAι
Conditions: CO2 substrate 1.7-17 mM; Zn(II) enzyme; 20 mM Tris (pH 7.5 in Methods, 8.3 in Table 1), 20 mM NaClO4; 25 C; 15 min preincubation at room temperature; Cheng-Prusoff

- Ki: 64.9 nM
SMILES: CC(=O)Nc1nnc(S(N)(=O)=O)s1 [acetazolamide]
